According to patent publication US10624948B2 (Xigen Inflammation Ltd., priority 2013, dated 2020):
End groups of sequences in plain letters are not given here.

Assay: peptide synthesis
Conditions: whole synthesis

Q: Which “final purity (method not given)” value does the source give for DQSRPVQPFLNLTTPRKPRPPRRRQRRKKRG here?
A: 95.28%
